# Source: patent US20100143349A1 (Pfizer, published 2010)
# Sequences of proteins named here, by UniProt entry; tags and fusion partners are left off. Residues count along the entry.
# UniProt Q15109, residues 23-404: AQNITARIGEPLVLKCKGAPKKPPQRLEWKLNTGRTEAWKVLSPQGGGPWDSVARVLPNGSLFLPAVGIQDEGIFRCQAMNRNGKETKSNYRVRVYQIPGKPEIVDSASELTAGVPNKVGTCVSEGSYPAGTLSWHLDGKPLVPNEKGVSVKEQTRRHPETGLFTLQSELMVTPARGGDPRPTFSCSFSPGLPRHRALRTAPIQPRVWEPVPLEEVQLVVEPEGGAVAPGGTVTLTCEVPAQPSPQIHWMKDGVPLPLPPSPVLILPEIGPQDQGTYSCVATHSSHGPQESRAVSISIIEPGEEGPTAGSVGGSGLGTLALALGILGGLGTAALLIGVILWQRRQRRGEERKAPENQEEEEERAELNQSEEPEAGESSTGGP
# UniProt Q62151, residues 23-340: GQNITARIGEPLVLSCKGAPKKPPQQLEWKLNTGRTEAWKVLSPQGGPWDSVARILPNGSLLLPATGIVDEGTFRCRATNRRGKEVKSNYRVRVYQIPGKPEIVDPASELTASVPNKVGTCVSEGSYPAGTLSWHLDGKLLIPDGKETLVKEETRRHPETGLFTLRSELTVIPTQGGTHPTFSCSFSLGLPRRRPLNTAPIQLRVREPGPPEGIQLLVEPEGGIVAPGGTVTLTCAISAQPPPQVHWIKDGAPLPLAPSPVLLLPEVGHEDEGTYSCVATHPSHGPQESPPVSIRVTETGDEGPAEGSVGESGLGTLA
# Numbering of substitutions follows the chain as printed. No constants are given. Whether binding was seen depends on the method and setting. Some entries that bind do so weakly or less than the wild type. Sequences can lack the tags named with a protein.
# B1: 1G6 scFv-Fc fusion (Fc fusion)
# chain: DIQMTQSPSSLSASVGDRVTITCRASQDVGFYVNWFQQKPGKAPRRLIYRATNLADGVPSRFSGSRSGTDFTLTISSLQPEDFATYYCLEFDEHPLTFGGGTKVEIKDGGGSGGGGSGGGGSSEVQLVESGGGLVQPGGSLRLSCAASGFTFNNYWMTWVRQAPGKGLEWVASIDNSGDNTYYPDSVKDRFTISRDNAKNSLYLQMNSLRAEDTAVYYCARGGDITNGFDYWGQGTLVTVSS
# notes: not shown: wild-type human IgG Fc (hinge and constant domains)
# B2: 6G4 scFv-Fc fusion (Fc fusion)
# chain: B1 chain with F31I, T226L, N227D, G228S, F229L, D230H, Y231F
# notes: Assayed separately; fold gain against the M4 value of the ribosome display set; not shown: wild-type human IgG Fc (hinge and constant domains)
# B3: 5A3 scFv-Fc fusion (Fc fusion)
# chain: B1 chain with R18I, F31I, G68S, Q205K, A220T, N227T, F229L
# notes: as for B1
# B4: 3D2 scFv-Fc fusion (Fc fusion)
# chain: B1 chain with F31I, T226R, N227V, G228S, F229L, Y231H
# notes: as for B1
# B5: 3B3 scFv-Fc fusion (Fc fusion)
# chain: B1 chain with N227T, F229L
# notes: as for B1
# B6: 8G9 scFv-Fc fusion (Fc fusion)
# chain: B1 chain with F31I, G139S, N227T, F229L
# notes: as for B1
# B7: 6B6 scFv-Fc fusion (Fc fusion)
# chain: B1 chain with F31I, T226I, N227I, G228S, F229L, Y231W
# notes: Substitutions derived from the printed HCDR3; not shown: wild-type human IgG Fc (hinge and constant domains)
# B8: 6C2 scFv-Fc fusion (Fc fusion)
# chain: B1 chain with F31I, T226K, N227V, G228S, F229L, Y231R
# notes: as for B1
# B9: 3A6 scFv-Fc fusion (Fc fusion)
# chain: B1 chain with F31I, T226L, N227V, G228S, F229L, Y231V
# notes: as for B1
# B10: 10G10 scFv-Fc fusion (Fc fusion)
# chain: B1 chain with F31I, K103R, T158S, D179E, N227T
# notes: as for B1
# B11: 3G5 scFv-Fc fusion (Fc fusion)
# chain: B1 chain with F31I, T226L, N227D, G228S, F229L, D230P
# notes: as for B7
# B12: 6C3 scFv-Fc fusion (Fc fusion)
# chain: B1 chain with F31I, N227L, F229L, Y231V
# notes: as for B1
# B13: 2E6 scFv-Fc fusion (Fc fusion)
# chain: B1 chain with F31I, S122N, G132V, F229L
# notes: also called 2E6 (c); not shown: wild-type human IgG Fc (hinge and constant domains)
# B14: 6B2 scFv-Fc fusion (Fc fusion)
# chain: B1 chain with F31I, T226R, N227V, F229L, Y231V
# notes: as for B7
# B15: 10D8 scFv-Fc fusion (Fc fusion)
# chain: B1 chain with R18K, G114N, G133E, N227T
# notes: also called 10D8 (b); not shown: wild-type human IgG Fc (hinge and constant domains)
# B16: 3B2 scFv-Fc fusion (Fc fusion)
# chain: B1 chain with F31I, T226L, N227V, F229L
# notes: as for B1
# B17: 10H6 scFv-Fc fusion (Fc fusion)
# chain: B1 chain with R18G, R24Q, F31I, D108N, N227T, F229L, V240E
# notes: also called 10H6 (a); not shown: wild-type human IgG Fc (hinge and constant domains)
# B18: 5H3 scFv-Fc fusion (Fc fusion)
# chain: B1 chain with F31I, Y49D, Q126L, N227T
# notes: as for B1
# Biological target: human RAGE expressed on CHO cells (human) (UniProt Q15109)
# Test: binding to cell surface expressed human RAGE
row,binding,Binder
1,binds,B1
2,binds,B2
3,binds,B3
4,binds,B4
5,binds,B5
6,binds,B6
7,binds,B7
8,binds,B8
9,binds,B9
10,binds,B10
11,binds,B11
12,binds,B12
13,binds,B13
14,binds,B14
15,binds,B15
16,binds,B16

# Biological target: murine RAGE (mouse) (UniProt Q62151)
# Test: HTRF competition on murine RAGE
row,binding,Binder
1,binds,B1
2,binds,B17
3,binds,B2
4,binds,B3
5,binds,B4
6,binds,B18
7,binds,B5
8,binds,B6
9,binds,B8
10,binds,B9
11,binds,B10
12,binds,B11
13,binds,B12
14,binds,B13
15,binds,B14
16,binds,B15
17,binds,B16
